Measurements published in the supplement of paper PMC10849652.
The other results are listed elsewhere or left out.

The chains behind the UniProt entries cited, without tags or fusion partners. Where a name states a change or a piece, a line headed by the entry shows the natural chain unless it says otherwise.
UniProt P35659: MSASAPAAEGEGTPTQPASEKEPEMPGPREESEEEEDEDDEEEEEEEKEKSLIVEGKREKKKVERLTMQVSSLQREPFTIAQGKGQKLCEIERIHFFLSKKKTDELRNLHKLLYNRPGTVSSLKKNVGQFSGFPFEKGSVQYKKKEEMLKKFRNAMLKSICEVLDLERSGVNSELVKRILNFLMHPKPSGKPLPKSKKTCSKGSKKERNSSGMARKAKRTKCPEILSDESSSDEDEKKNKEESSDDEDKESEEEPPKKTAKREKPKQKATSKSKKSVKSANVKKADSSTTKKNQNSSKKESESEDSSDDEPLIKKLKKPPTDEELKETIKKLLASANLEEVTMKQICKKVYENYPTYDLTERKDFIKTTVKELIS
UniProt Q96SD1, whole entry, looked up: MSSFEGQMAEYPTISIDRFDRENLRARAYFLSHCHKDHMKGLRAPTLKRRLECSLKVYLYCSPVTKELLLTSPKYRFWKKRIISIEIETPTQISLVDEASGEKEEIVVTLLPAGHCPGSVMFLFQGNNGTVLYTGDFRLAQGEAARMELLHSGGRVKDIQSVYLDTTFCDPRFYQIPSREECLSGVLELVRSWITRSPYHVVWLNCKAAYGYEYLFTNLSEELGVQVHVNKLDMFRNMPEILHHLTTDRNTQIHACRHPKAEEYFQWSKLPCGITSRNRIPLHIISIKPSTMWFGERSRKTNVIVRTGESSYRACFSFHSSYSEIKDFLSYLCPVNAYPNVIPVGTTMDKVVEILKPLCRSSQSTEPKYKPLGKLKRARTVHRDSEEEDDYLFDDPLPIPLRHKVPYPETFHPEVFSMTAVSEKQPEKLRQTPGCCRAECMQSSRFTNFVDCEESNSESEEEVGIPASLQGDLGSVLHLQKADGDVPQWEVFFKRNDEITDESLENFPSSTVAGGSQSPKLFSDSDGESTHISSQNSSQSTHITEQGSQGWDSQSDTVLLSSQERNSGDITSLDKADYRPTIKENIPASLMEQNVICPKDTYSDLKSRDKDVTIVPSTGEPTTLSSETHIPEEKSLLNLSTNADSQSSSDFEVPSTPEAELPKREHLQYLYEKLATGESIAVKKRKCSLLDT
UniProt Q9NUL7: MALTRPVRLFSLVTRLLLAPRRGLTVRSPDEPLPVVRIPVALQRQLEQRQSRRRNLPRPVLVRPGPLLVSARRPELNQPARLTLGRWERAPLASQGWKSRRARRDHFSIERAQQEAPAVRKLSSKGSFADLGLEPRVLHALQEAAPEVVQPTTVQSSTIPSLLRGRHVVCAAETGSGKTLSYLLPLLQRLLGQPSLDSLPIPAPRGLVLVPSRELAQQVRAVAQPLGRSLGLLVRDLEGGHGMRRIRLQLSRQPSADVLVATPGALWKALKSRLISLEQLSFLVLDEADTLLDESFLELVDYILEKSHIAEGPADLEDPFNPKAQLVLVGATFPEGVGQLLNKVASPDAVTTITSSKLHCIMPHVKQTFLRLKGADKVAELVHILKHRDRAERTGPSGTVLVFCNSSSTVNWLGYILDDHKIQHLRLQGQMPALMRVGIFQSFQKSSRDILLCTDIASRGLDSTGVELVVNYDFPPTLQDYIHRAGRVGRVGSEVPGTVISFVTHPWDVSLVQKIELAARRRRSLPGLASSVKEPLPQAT
UniProt Q9NQI0, whole entry, looked up: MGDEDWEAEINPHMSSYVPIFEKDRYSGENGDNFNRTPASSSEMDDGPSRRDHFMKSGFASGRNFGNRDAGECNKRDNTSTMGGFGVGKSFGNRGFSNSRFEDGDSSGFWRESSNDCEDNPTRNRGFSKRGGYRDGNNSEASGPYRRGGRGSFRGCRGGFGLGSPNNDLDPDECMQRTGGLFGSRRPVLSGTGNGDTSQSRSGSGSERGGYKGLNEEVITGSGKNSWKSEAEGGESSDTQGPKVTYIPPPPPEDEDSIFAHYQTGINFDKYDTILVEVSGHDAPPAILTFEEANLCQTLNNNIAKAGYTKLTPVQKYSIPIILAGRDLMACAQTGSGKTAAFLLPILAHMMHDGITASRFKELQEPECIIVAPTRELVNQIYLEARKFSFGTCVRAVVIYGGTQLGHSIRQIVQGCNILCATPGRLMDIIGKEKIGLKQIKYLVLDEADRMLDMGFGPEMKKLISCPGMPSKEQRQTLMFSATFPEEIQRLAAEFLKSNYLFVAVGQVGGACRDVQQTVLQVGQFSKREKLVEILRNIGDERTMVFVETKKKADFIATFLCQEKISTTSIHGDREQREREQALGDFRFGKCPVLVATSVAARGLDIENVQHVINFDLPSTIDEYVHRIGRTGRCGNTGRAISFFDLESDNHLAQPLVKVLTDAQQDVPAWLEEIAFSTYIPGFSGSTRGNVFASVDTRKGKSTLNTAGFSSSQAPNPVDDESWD
UniProt Q6ICB0: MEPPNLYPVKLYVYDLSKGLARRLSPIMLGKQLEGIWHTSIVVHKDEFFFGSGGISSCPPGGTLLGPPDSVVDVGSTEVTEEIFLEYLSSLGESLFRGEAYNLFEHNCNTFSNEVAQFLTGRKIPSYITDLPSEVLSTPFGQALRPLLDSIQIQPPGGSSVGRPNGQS
UniProt Q08345: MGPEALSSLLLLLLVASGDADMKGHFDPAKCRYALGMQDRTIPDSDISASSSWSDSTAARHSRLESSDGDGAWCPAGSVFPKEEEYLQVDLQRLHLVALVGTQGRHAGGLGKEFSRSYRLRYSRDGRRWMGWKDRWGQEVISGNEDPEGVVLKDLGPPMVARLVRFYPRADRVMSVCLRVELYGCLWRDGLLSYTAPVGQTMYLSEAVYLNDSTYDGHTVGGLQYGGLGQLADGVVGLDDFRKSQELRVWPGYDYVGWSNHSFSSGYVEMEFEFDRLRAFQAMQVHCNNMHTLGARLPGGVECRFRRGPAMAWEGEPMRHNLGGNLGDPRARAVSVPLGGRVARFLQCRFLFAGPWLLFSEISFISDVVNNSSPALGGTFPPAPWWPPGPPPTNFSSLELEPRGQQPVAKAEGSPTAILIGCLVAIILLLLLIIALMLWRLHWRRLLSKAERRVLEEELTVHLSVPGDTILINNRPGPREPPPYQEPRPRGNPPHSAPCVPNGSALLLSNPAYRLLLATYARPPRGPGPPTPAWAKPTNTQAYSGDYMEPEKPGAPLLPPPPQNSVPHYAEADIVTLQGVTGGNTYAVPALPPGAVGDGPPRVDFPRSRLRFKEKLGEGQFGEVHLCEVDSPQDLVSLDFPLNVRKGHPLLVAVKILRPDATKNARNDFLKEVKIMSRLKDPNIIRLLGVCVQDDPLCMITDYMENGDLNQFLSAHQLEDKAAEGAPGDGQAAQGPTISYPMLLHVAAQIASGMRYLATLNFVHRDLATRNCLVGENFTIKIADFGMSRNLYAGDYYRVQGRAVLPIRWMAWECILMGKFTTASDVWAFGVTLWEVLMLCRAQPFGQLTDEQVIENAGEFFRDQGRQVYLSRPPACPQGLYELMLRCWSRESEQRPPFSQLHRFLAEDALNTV
UniProt Q15438: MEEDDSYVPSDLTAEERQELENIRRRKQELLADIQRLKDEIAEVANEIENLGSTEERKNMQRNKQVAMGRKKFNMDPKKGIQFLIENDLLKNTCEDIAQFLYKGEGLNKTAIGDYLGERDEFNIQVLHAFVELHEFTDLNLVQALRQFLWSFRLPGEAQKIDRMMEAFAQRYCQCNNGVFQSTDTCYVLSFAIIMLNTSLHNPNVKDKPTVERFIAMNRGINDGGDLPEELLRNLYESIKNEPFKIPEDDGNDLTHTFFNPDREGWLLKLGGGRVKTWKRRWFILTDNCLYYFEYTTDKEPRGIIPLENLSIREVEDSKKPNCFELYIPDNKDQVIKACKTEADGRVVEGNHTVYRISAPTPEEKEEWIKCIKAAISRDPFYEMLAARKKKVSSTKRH
UniProt Q9HBI6: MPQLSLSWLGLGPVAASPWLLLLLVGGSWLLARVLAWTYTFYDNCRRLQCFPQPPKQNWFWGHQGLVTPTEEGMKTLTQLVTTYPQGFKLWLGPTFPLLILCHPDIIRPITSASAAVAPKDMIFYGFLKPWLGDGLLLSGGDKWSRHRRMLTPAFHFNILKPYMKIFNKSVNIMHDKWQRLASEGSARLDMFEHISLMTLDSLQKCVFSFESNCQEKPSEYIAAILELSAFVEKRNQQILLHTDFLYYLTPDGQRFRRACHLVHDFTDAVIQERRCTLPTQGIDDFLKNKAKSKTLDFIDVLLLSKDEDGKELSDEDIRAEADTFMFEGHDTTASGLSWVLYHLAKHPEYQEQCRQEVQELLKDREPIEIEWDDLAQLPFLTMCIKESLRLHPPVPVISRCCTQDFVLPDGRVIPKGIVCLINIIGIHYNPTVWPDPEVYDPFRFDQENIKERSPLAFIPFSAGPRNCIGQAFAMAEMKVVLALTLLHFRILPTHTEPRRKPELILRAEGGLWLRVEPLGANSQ
UniProt O43739: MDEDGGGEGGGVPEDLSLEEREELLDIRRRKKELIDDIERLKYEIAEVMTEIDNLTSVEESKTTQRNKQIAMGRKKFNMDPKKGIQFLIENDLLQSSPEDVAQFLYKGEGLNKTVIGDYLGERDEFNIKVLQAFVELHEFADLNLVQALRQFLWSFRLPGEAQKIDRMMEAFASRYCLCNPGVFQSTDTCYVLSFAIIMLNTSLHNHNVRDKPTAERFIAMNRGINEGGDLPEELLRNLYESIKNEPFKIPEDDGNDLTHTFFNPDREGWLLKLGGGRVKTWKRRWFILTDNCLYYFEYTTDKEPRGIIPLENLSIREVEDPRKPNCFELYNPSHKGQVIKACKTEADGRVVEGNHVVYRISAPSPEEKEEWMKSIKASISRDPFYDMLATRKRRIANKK
UniProt Q9UBU7: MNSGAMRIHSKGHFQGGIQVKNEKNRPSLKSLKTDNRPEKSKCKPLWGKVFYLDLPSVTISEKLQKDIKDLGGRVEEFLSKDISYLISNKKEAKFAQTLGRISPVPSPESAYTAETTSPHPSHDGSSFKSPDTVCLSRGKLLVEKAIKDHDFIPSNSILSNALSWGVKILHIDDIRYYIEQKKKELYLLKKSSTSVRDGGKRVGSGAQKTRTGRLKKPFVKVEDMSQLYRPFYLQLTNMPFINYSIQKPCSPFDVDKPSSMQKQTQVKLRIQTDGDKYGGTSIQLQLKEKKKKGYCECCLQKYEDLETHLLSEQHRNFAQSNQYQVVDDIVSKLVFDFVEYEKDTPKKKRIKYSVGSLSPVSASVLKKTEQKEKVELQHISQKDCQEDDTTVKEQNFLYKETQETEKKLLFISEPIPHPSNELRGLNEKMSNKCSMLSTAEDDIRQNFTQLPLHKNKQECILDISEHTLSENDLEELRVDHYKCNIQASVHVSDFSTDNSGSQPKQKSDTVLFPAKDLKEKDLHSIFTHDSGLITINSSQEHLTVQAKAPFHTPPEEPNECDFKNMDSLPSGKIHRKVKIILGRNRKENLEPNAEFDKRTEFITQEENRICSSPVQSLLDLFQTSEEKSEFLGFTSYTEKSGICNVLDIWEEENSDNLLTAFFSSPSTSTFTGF
UniProt Q96FC9: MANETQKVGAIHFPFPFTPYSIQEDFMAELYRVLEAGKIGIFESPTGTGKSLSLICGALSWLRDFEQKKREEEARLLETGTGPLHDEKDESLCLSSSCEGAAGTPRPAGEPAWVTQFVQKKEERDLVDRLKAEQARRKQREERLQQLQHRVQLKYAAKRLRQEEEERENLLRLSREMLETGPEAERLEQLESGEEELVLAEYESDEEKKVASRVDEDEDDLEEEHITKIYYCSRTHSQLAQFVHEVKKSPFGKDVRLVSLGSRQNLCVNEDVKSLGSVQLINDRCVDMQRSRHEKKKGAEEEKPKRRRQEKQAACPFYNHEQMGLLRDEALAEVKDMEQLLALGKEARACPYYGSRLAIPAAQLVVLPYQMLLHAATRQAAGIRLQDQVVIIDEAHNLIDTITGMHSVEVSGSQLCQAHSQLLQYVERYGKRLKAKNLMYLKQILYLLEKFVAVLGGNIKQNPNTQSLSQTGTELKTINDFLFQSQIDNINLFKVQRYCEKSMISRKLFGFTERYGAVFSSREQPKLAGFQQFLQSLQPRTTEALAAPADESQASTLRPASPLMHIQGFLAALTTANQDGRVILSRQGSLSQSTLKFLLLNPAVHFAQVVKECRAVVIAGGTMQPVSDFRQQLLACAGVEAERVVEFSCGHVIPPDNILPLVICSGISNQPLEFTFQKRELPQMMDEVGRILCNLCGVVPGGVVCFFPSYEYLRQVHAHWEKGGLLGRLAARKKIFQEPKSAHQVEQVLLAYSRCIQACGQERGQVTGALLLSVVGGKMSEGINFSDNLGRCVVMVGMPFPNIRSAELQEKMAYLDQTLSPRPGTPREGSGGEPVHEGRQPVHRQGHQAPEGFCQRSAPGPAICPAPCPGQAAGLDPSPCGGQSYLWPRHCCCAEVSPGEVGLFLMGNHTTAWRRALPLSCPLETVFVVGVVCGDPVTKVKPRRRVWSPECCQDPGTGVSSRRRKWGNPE

Columns and labels:
Assay in all cases: log2 fold change, soluble protein after heating vs DMSO (PISA); higher = thermal stabilisation; K562 lysate, 10 uM; active = over 0.2 and 3.5 SD of the protein, either way, in both replicates (recomputed)
alvocidib = compound: CN1CC[C@H](c2c(O)cc(O)c3c(=O)cc(-c4ccccc4Cl)oc23)[C@H](O)C1 [alvocidib]
Procedure, shortened: (§1)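 Dounce homogenisation of K562 pellets in PBS pH 7.4 with 1 mM MgCl2 produced a crude extract, used at 1 mg/mL protein. Exposure to 10 μM compound lasted 30 min, and aliquots were then heated for 3 min across 48°C-58°C, pooled and brought to 0.5% NP-40 at 4°C. The supernatant after 21,000xg for 90 min was quantified by TMTpro 16plex LC-MS/MS with channel sums equalised. Duplicate values are given as log-two fold change in thermal stability relative to solvent controls.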

Tubastatin A = compound: CN1CCc2c(c3ccccc3n2Cc2ccc(C(=O)NO)cc2)C1 [Tubastatin A]
Procedure, shortened: as §1

[1] = compound: CNC(=O)C1=CC=CC=C1NC2=NC(=NC=C2Cl)NC3=C(C=C(C=C3)N4CCOCC4)OC
Procedure, shortened: as §1

defactinib = compound: CNC(=O)c1ccc(Nc2ncc(C(F)(F)F)c(NCc3nccnc3N(C)S(C)(=O)=O)n2)cc1 [defactinib]
Procedure, shortened: as §1

[2] = compound: CNc1nc(-c2ccc3c(N)n[nH]c3c2)cc(N2C[C@@H](C(=O)NC3CCCCC3)CC[C@H]2C)n1
Procedure, shortened: as §1

encorafenib = compound: COC(=O)N[C@@H](C)CNc1nccc(-c2cn(C(C)C)nc2-c2cc(Cl)cc(NS(C)(=O)=O)c2F)n1 [encorafenib]
Procedure, shortened: as §1

[3] = compound: COC(=O)[C@H](CCSC)NC(=O)C1=C(C=C(C=C1)NC[C@H](CS)N)C2=CC=CC=C2
Procedure, shortened: as §1

alisertib = compound: COc1cc(Nc2ncc3c(n2)-c2ccc(Cl)cc2C(c2c(F)cccc2OC)=NC3)ccc1C(=O)O [alisertib]
Procedure, shortened: as §1

[4] = compound: COc1cc2nc(-c3cc(F)ccc3O)nc(N[C@@H]3CNC[C@H]3C(C)(C)O)c2cc1OC
Procedure, shortened: as §1

gefitinib = compound: COc1cc2ncnc(Nc3ccc(F)c(Cl)c3)c2cc1OCCCN1CCOCC1 [gefitinib]
Procedure, shortened: as §1

lapatinib = compound: CS(=O)(=O)CCNCc1ccc(-c2ccc3ncnc(Nc4ccc(OCc5cccc(F)c5)c(Cl)c4)c3c2)o1 [lapatinib]
Procedure, shortened: as §1

pictilisib = compound: CS(=O)(=O)N1CCN(Cc2cc3nc(-c4cccc5[nH]ncc45)nc(N4CCOCC4)c3s2)CC1 [pictilisib]
Procedure, shortened: as §1

crizotinib = compound: C[C@@H](Oc1cc(-c2cnn(C3CCNCC3)c2)cnc1N)c1c(Cl)ccc(F)c1Cl [crizotinib]
Procedure, shortened: as §1

[5] = compound: C[C@H](C1=CC=C(C=C1)C(=O)NC2=C3C=CNC3=NC=C2)N
Procedure, shortened: as §1

duvelisib = compound: C[C@H](Nc1ncnc2nc[nH]c12)c1cc2cccc(Cl)c2c(=O)n1-c1ccccc1 [duvelisib]
Procedure, shortened: as §1

gandotinib = compound: Cc1cc(Nc2cc(CN3CCOCC3)c3nc(C)c(Cc4ccc(Cl)cc4F)n3n2)n[nH]1 [gandotinib]
Procedure, shortened: as §1

tozasertib = compound: Cc1cc(Nc2cc(N3CCN(C)CC3)nc(Sc3ccc(NC(=O)C4CC4)cc3)n2)n[nH]1 [tozasertib]
Procedure, shortened: as §1

doramapimod = compound: Cc1ccc(-n2nc(C(C)(C)C)cc2NC(=O)Nc2ccc(OCCN3CCOCC3)c3ccccc23)cc1 [doramapimod]
Procedure, shortened: as §1

bafetinib = compound: Cc1ccc(NC(=O)c2ccc(CN3CC[C@H](N(C)C)C3)c(C(F)(F)F)c2)cc1Nc1nccc(-c2cncnc2)n1 [bafetinib]
Procedure, shortened: as §1

[6] = compound: Cc1cccc(CC(=O)N2CCc3c2ccc(-c2cn(C)c4ncnc(N)c24)c3F)n1
Procedure, shortened: as §1

Measured: log2 fold change

DDX46 (UniProt Q7L014)
inactive: alvocidib -0.036 | Tubastatin A -0.043 | [1] 0.007 | defactinib 0.012 | [2] -0.006 | encorafenib 0.009 | [3] 0.085 | alisertib 0.019 | [4] -0.013 | gefitinib -0.01 | lapatinib 0.009 | pictilisib 0.003 | crizotinib -0.041 | [5] -0.07 | duvelisib -0.046 | gandotinib -0.025 | tozasertib 0.005 | doramapimod 0.056 | bafetinib -0.021 | [6] 0.067

DDX18 (UniProt Q9NVP1)
inactive: alvocidib -0.016 | Tubastatin A -0.047 | [1] 0.009 | defactinib 0.027 | [2] 0.024 | encorafenib 0.043 | [3] 0.028 | alisertib -0.001 | [4] -0.004 | gefitinib -0.014 | lapatinib 0.017 | pictilisib 0.006 | crizotinib -0.03 | [5] -0.024 | duvelisib 0.006 | gandotinib -0.031 | tozasertib -0.035 | doramapimod -0.021 | bafetinib -0.024 | [6] 0.05

DAPK1 isoform 3 (UniProt P53355)
inactive: alvocidib 0.085 | Tubastatin A 0.001 | [1] 0.322 | defactinib -0.109 | [2] 0.058 | alisertib 0.051 | [4] 0.063 | gefitinib 0.139 | lapatinib 0.042 | crizotinib 0.022 | [5] 0.188 | duvelisib 0.042 | gandotinib 0.058 | doramapimod -0.141 | [6] -0.383

DEK (UniProt P35659)
inactive: alvocidib 0.017 | Tubastatin A -0.004 | [1] 0.017 | defactinib -0.005 | [2] 0.027 | encorafenib -0.013 | [3] -0.003 | alisertib -0.004 | [4] 0 | gefitinib -0.002 | lapatinib -0.008 | pictilisib 0.004 | crizotinib 0.037 | [5] -0.009 | duvelisib -0.009 | gandotinib 0.006 | tozasertib -0.016 | doramapimod -0.035 | bafetinib 0.004 | [6] -0.02

DCLRE1C (UniProt Q96SD1)
inactive: alvocidib 0.153 | Tubastatin A -0.027 | [4] 0.256 | lapatinib 0.124 | crizotinib 0.028 | [5] -0.187 | gandotinib -0.033 | doramapimod 0.036 | [6] -0.031

Retrieved one by one from the entries so far (2):
DDX18 (UniProt Q9NVP1)
inactive: alvocidib -0.016 | Tubastatin A -0.047 | [1] 0.009 | defactinib 0.027 | [2] 0.024 | encorafenib 0.043 | [3] 0.028 | alisertib -0.001 | [4] -0.004 | gefitinib -0.014 | lapatinib 0.017 | pictilisib 0.006 | crizotinib -0.03 | [5] -0.024 | duvelisib 0.006 | gandotinib -0.031 | tozasertib -0.035 | doramapimod -0.021 | bafetinib -0.024 | [6] 0.05

DEK (UniProt P35659)
inactive: alvocidib 0.017 | Tubastatin A -0.004 | [1] 0.017 | defactinib -0.005 | [2] 0.027 | encorafenib -0.013 | [3] -0.003 | alisertib -0.004 | [4] 0 | gefitinib -0.002 | lapatinib -0.008 | pictilisib 0.004 | crizotinib 0.037 | [5] -0.009 | duvelisib -0.009 | gandotinib 0.006 | tozasertib -0.016 | doramapimod -0.035 | bafetinib 0.004 | [6] -0.02

Later entries

DDX51 (UniProt Q8N8A6)
inactive: alvocidib -0.06 | Tubastatin A -0.096 | [1] 0.097 | [2] -0.118 | alisertib -0.068 | [4] -0.032 | gefitinib 0.049 | lapatinib -0.016 | crizotinib -0.036 | [5] 0.048 | duvelisib 0.087 | gandotinib -0.018 | doramapimod 0.129 | [6] 0.051

DDX28 (UniProt Q9NUL7)
inactive: alvocidib 0.066 | Tubastatin A -0.157 | [1] -0.087 | [2] -0.013 | alisertib -0.013 | gefitinib -0.011 | pictilisib -0.185 | crizotinib 0.034 | [5] 0.181 | duvelisib 0.059 | gandotinib -0.154 | doramapimod 0.136 | bafetinib -0.083 | [6] 0.119

CYTH2 (UniProt Q99418)
inactive: alvocidib -0.041 | Tubastatin A -0.054 | [1] -0.023 | [2] -0.043 | encorafenib 0.022 | [3] -0.153 | alisertib -0.03 | [4] 0.011 | gefitinib -0.007 | lapatinib -0.026 | pictilisib -0.089 | [5] 0.056 | duvelisib -0.089 | gandotinib 0.025 | tozasertib -0.061 | bafetinib 0.025 | [6] 0.023

DDX4 (UniProt Q9NQI0)
inactive: alvocidib -0.234 | Tubastatin A -0.173 | [1] -0.05 | defactinib -0.058 | [2] -0.116 | encorafenib -0.047 | [3] -0.02 | alisertib 0.032 | [4] -0.007 | gefitinib 0.021 | lapatinib -0.045 | pictilisib 0.035 | duvelisib 0.02 | gandotinib 0.132 | tozasertib 0.078 | bafetinib -0.167 | [6] 0.174
active: [5] -0.481

DDX46, A0A0C4DG89
inactive: alvocidib -0.073 | defactinib 0.124 | [2] 0.017 | encorafenib 0.054 | [3] 0.076 | alisertib 0.019 | [4] 0.089 | gefitinib 0.341 | lapatinib -0.049 | pictilisib 0.023 | [5] 0.067 | duvelisib 0.084 | gandotinib -0.194 | tozasertib -0.038 | bafetinib -0.196 | [6] -0.049

DESI1 (UniProt Q6ICB0)
inactive: alvocidib 0.058 | defactinib 0.047 | [2] -0.178 | encorafenib 0.037 | [3] -0.19 | alisertib -0.013 | gefitinib 0.009 | pictilisib 0.049 | crizotinib 0.175 | [5] 0.08 | duvelisib -0.021 | gandotinib -0.054 | tozasertib -0.072 | doramapimod -0.068 | bafetinib 0 | [6] 0.012

DDR1 isoform 5 (UniProt Q08345)
active: crizotinib -0.712
inactive: alvocidib -0.034 | Tubastatin A 0.052 | [2] 0.147 | encorafenib 0.044 | [3] -0.094 | alisertib 0 | gefitinib 0.046 | pictilisib -0.075 | [5] 0.097 | duvelisib -0.051 | gandotinib -0.305 | bafetinib 0.101 | [6] 0.007

CYTH1 (UniProt Q15438)
inactive: alvocidib -0.076 | Tubastatin A 0.067 | [1] -0.026 | encorafenib 0.023 | [3] 0.01 | alisertib -0.08 | [4] -0.084 | gefitinib -0.227 | lapatinib 0.145 | pictilisib -0.031 | crizotinib 0.029 | [5] -0.017 | gandotinib 0.022 | tozasertib -0.077 | doramapimod -0.013 | bafetinib -0.052 | [6] 0.089

DCBLD2 isoform 2 (UniProt Q96PD2)
inactive: alvocidib -0.092 | Tubastatin A 0.101 | [2] -0.157 | [4] -0.031 | lapatinib -0.029 | [5] -0.065 | duvelisib 0.133 | gandotinib -0.055 | [6] 0.06

CYP4F11 (UniProt Q9HBI6)
inactive: alvocidib -0.099 | Tubastatin A -0.47 | [2] -0.176 | [5] -0.249 | duvelisib -0.056 | gandotinib 0.36 | [6] 0.096

CYTH3 (UniProt O43739)
inactive: alvocidib -0.043 | Tubastatin A -0.111 | [4] -0.06 | lapatinib -0.189 | [5] 0.039 | gandotinib -0.046 | [6] 0.008

DDX54 isoform 2 (UniProt Q8TDD1)
inactive: alvocidib -0.037 | Tubastatin A -0.047 | [1] 0.017 | defactinib -0.05 | [2] -0.03 | encorafenib 0.084 | [3] 0.025 | alisertib 0.023 | [4] 0.006 | gefitinib -0.089 | lapatinib -0.03 | pictilisib 0.075 | crizotinib -0.057 | [5] -0.025 | duvelisib 0.025 | gandotinib 0.01 | tozasertib 0.035 | doramapimod 0.019 | bafetinib 0.11 | [6] 0.101

DCTN1 isoform 4 (UniProt Q14203)
inactive: alvocidib 0.3 | Tubastatin A -0.254 | [1] 0.212 | defactinib -0.046 | [2] 0.105 | encorafenib 0.078 | [3] -0.064 | alisertib 0.107 | [4] -0.05 | gefitinib 0.051 | lapatinib -0.039 | crizotinib -0.031 | [5] 0.054 | duvelisib -0.032 | gandotinib 0.121 | tozasertib 0.173 | doramapimod -0.103 | [6] -0.239

DBF4 (UniProt Q9UBU7)
inactive: alvocidib -0.118 | Tubastatin A -0.072 | [1] -0.025 | defactinib -0.023 | [2] -0.058 | encorafenib 0.04 | [3] -0.072 | alisertib -0.028 | gefitinib -0.029 | pictilisib 0 | crizotinib -0.031 | duvelisib 0.004 | gandotinib 0.059 | tozasertib -0.009 | doramapimod -0.018 | bafetinib -0.028 | [6] 0.035
active: [5] -0.409

DDX11 (UniProt Q96FC9)
inactive: alvocidib -0.06 | Tubastatin A -0.076 | [1] 0.041 | defactinib -0.052 | [2] -0.082 | alisertib -0.051 | gefitinib 0.008 | crizotinib -0.078 | [5] -0.22 | duvelisib 0.046 | gandotinib 0.064 | doramapimod 0.171 | [6] 0.016
